Experimental data published in PubChem BioAssay AID248 (DTP/NCI, 2004).
The list shows only some results of the screen, not a fair sample: it gathers tests that were run many times, whatever their T/C, doses with no T/C, and many T/C values between a quarter and a half above the control. Further doses and runs are listed elsewhere. T/C gives the treated animals as a percentage of the vehicle group. Some doses have a count of surviving animals in place of a T/C: the source holds a T/C of zero for them, seemingly a mark for toxic or unscored doses. Some doses without a T/C left all or most animals alive at the check, yet need not have been tolerated: the source hardly ever lists a survival T/C far under the control, and the zero likely stands for such cases as well. Counts of survivors are from the toxicity check (mostly the fifth day) where no day follows; animals may have died later. Schedules are NCI's codes, read here as Q, the interval in days (D) or hours (H), X, the number of doses. Some schedule codes hold Z or #, which are not explained here. Some doses were run more than once; their values stand side by side, smallest first. For survival time, the PubChem record calls one and a half times the control and up active, and a quarter to a half above the control has no call in these data; cut-offs in other NCI protocols can differ. Some T/C values carry the count of animals alive at the toxicity check (mostly the fifth day); where none is given, no animal had died by that day.

System: L1210 leukemia ip in BDF1 mice, survival T/C
Assay: NCI In Vivo Anticancer Drug Screen. Data for tumor model L1210 Leukemia (intraperitoneal) in B6D2F1 (BDF1) mice
Details: T/C endpoint: mean survival time, higher T/C = longer survival
[1] = dose: 400.0 mg/kg/injection, schedule: Q01DX001 (ip), vehicle: saline
[2] = dose: 200.0 mg/kg/injection, schedule: Q04DX003 (ip), vehicle: saline with Tween-80
[3] = dose: 400.0 mg/kg/injection, schedule: Q04DX003 (ip), vehicle: saline with Tween-80
[4] = dose: 100.0 mg/kg/injection, schedule: Q04DX002 (ip), vehicle: Klucel (hydroxypropylcellulose) (HPC)
[5] = dose: 400.0 mg/kg/injection, schedule: Q04DX002 (ip), vehicle: Klucel (hydroxypropylcellulose) (HPC)
[6] = dose: 400.0 mg/kg/injection, schedule: Q04DX002 (ip), vehicle: saline with Tween-80
[7] = dose: 400.0 mg/kg/injection, schedule: Q01DX009 (ip), vehicle: Klucel (hydroxypropylcellulose) (HPC)
[8] = dose: 300.0 mg/kg/injection, schedule: Q01DX001 (ip), vehicle: carboxymethylcellulose (CMC)
[9] = dose: 400.0 mg/kg/injection, schedule: Q04DX003 (ip), vehicle: Klucel (hydroxypropylcellulose) (HPC)
[10] = dose: 200.0 mg/kg/injection, schedule: Q01DX001 (ip), vehicle: saline
[11] = dose: 25.0 mg/kg/injection, schedule: Q01DX Z (ip), vehicle: methylcellulose (MC)
[12] = dose: 50.0 mg/kg/injection, schedule: Q01DX Z (ip), vehicle: methylcellulose (MC)
[13] = dose: 100.0 mg/kg/injection, schedule: Q01DX Z (ip), vehicle: methylcellulose (MC)

CC12CC(=O)OC1(C)C1CCC2C1 (configuration not stated) was tested, and the survivor count (dose: 25.0 mg/kg/injection, schedule: Q01DX009 (ip), vehicle: acetone) was 4 of 6, the survivor count (dose: 50.0 mg/kg/injection, schedule: Q01DX001 (ip), vehicle: acetone) was 2 of 6 and the survivor count (dose: 100.0 mg/kg/injection, schedule: Q01DX001 (ip), vehicle: acetone) was 0 of 6. For the same compound, the survivor count (dose: 200.0 mg/kg/injection, schedule: Q01DX001 (ip), vehicle: acetone) was 0 of 6 and the survivor count (dose: 400.0 mg/kg/injection, schedule: Q01DX001 (ip), vehicle: acetone) was 0 of 6.
In the case of O=C(O)C(CSC(c1ccccc1)(c1ccccc1)c1ccccc1)N=Cc1ccccc1O (configuration not stated), the T/C (dose: 178.0 mg/kg/injection, schedule: Q01DX001 (ip), vehicle: saline) is reported as 133 % of control and the T/C [1] is reported as 145 % of control [5 of 6 alive].
For O=P1(O)[O][Sn]([c]2ccccc2)([c]2ccccc2)[O]1, the survivor count (dose: 25.0 mg/kg/injection, schedule: Q01DX009 (ip), vehicle: saline with Tween-80) was 0 of 3, the survivor count (dose: 50.0 mg/kg/injection, schedule: Q01DX003 (ip), vehicle: saline) was 1 of 3 and the survivor count (dose: 100.0 mg/kg/injection, schedule: Q01DX003 (ip), vehicle: saline) was 1 of 3. For the same compound, the survivor count (dose: 200.0 mg/kg/injection, schedule: Q01DX003 (ip), vehicle: saline) was 0 of 3.
In the case of COc1cc2c(cc1OC)C(=O)N(C)CC2, the survivor count (dose: 400.0 mg/kg/injection, schedule: Q01DX009 (ip), vehicle: water) is reported as 1 of 6.
CC(=O)N1CCOC12CCN(Cc1ccccc1)CC2 was tested, and the survivor count [2] was 4 of 6 and the survivor count [3] was 1 of 6.
For CCOC(=O)/C=C/C(=O)O.[Co], the survivor count (dose: 200.0 mg/kg/injection, schedule: Q04DX003 (ip), vehicle: saline) was 0 of 4 and the survivor count (dose: 400.0 mg/kg/injection, schedule: Q04DX003 (ip), vehicle: saline) was 0 of 4.
O=[N+]([O-])c1ccc(N2N=NC3CC/C(=C\c4cccc([N+](=O)[O-])c4)C32N2CCOCC2)cc1 (configuration not stated) was tested, and the survivor count [4] was 0 of 3, the survivor count (dose: 200.0 mg/kg/injection, schedule: Q04DX002 (ip), vehicle: Klucel (hydroxypropylcellulose) (HPC)) was 0 of 3 and the survivor count [5] was 0 of 3.
O=C1NCC2(O1)c1ccccc1-c1ccccc12 was tested, and the T/C [6] was 130 % of control.
For NC(=O)c1ccccc1OC(=O)Nc1ccccc1, the survivor count (dose: 200.0 mg/kg/injection, schedule: Q01DX009 (ip), vehicle: Klucel (hydroxypropylcellulose) (HPC)) was 1 of 6 and the survivor count [5] was 3 of 3.
In the case of O=C(O)c1c(Br)c(Br)c(Br)c(Br)c1C(=O)Nc1ccccc1C(F)(F)F, the survivor count [7] is reported as 0 of 6.
CC(C)=CC(=O)OCC[N+](C)(C)C was tested, and the survivor count (dose: 25.0 mg/kg/injection, schedule: Q01DX009 (ip), vehicle: saline) was 6 of 6 and the survivor count (dose: 50.0 mg/kg/injection, schedule: Q01DX009 (ip), vehicle: saline) was 0 of 6.
COc1cc(NC(=O)Nc2cc(Cl)ccc2C)c(OC)cc1Cl was tested, and the survivor count [7] was 3 of 3.
For CCOC(=O)C[P+](c1ccc(OC)cc1)(c1ccc(OC)cc1)c1ccc(OC)cc1, the survivor count (dose: 15.0 mg/kg/injection, schedule: Q01DX001 (ip), vehicle: carboxymethylcellulose (CMC)) was 6 of 6 and the survivor count (dose: 60.0 mg/kg/injection, schedule: Q01DX001 (ip), vehicle: carboxymethylcellulose (CMC)) was 2 of 6.
For CCOc1ccc(N)c(O)c1, the survivor count (dose: 150.0 mg/kg/injection, schedule: Q01DX001 (ip), vehicle: carboxymethylcellulose (CMC)) was 1 of 6 and the survivor count [8] was 0 of 6.
With CC(C)(C#N)C(C)(C)c1cnc2ccccc2c1 the survivor count [9] was 0 of 6.
For Cc1cc(NC(=O)Nc2cc(F)ccc2F)no1, the T/C (dose: 100.0 mg/kg/injection, schedule: Q01DX009 (ip), vehicle: Klucel (hydroxypropylcellulose) (HPC)) was 145 % of control.
With CCN(CC)N=Nc1ccccc1-c1nc(N)nc(N)n1 the survivor count [9] was 2 of 6.
With CCCCCCCCCCCCCCCCCCNC(=O)Nc1nccs1 the survivor count [4] was 3 of 3.
O=C(O)C(Br)C(Br)C(=O)Nc1ccc(F)cc1 (configuration not stated) was tested, and the survivor count [6] was 1 of 3.
NC(=O)c1nnc(-c2ccccn2)[nH]c1=O was tested, and the survivor count (dose: 200.0 mg/kg/injection, schedule: Q01DX001 (ip), vehicle: Klucel (hydroxypropylcellulose) (HPC)) was 3 of 3 and the survivor count (dose: 400.0 mg/kg/injection, schedule: Q01DX001 (ip), vehicle: Klucel (hydroxypropylcellulose) (HPC)) was 0 of 3.
For C=CCN1/C(=C\C=C\c2ccc3cc(C)ccc3[n+]2CC=C)C=Cc2cc(C)ccc21, the survivor count (dose: 2.34 mg/kg/injection, schedule: Q01DX001 (ip), vehicle: steroid suspending solution) was 3 of 6, the survivor count (dose: 4.68 mg/kg/injection, schedule: Q01DX001 (ip), vehicle: steroid suspending solution) was 6 of 6 and the survivor count (dose: 9.38 mg/kg/injection, schedule: Q01DX001 (ip), vehicle: steroid suspending solution) was 5 of 6. The survivor count (dose: 18.75 mg/kg/injection, schedule: Q01DX001 (ip), vehicle: steroid suspending solution) was 2 of 6 and the survivor count (dose: 37.5 mg/kg/injection, schedule: Q01DX001 (ip), vehicle: steroid suspending solution) was 3 of 6.
O=C1c2ccccc2C(O)N1c1ccccc1 (configuration not stated) was tested, and the survivor count [10] was 4 of 4.
For CCc1c(CC(=O)O)c2cc(C)ccc2n1Cc1ccc(Cl)cc1, the survivor count (dose: 81.0 mg/kg/injection, schedule: Q01DX Z (ip), vehicle: carboxymethylcellulose (CMC)) was 5 of 6.
N/C(=N\[N+](=O)[O-])N(CCCCl)N=O was tested, and the T/C [11] was 96 % of control, the survivor count [11] was 0 of 6 and 3 of 6 and the T/C [12] was 106 % of control [4 of 6 alive]. For the same compound, the survivor count [12] was 0 of 6 and 3 of 6, the T/C [13] was 112 % of control and the survivor count [13] was 0 of 6. For the same compound, the survivor count (dose: 135.0 mg/kg/injection, schedule: Q01DX Z (ip), vehicle: carboxymethylcellulose (CMC)) was 4 of 6, the survivor count (dose: 200.0 mg/kg/injection, schedule: Q01DX Z (ip), vehicle: methylcellulose (MC)) was 0 of 6 and the survivor count [1] was 2 of 4.
For O=c1cc(C(F)(F)F)[nH]c2ccc(Br)cc12, the survivor count (dose: 100.0 mg/kg/injection, schedule: Q04DX003 (ip), vehicle: saline with Tween-80) was 5 of 6, the survivor count [2] was 4 of 6 and the survivor count [3] was 0 of 6.
In the case of N=C(N)SCCCSC(=N)N, the survivor count (dose: 200.0 mg/kg/injection, schedule: Q01DX009 (ip), vehicle: saline) is reported as 5 of 6, the survivor count (dose: 200.0 mg/kg/injection, schedule: Q04DX003 (ip), vehicle: Klucel (hydroxypropylcellulose) (HPC)) is reported as 0 of 6 and the survivor count (dose: 400.0 mg/kg/injection, schedule: Q01DX009 (ip), vehicle: saline) is reported as 0 of 6. For the same compound, the survivor count [9] was 0 of 6.
O=C(COC1CCCCC1)OC1CCCCC1 was tested, and the survivor count [2] was 6 of 6.
With OC(CN1CCCCC1)c1ccc2oc3ccccc3c2c1 (configuration not stated) the survivor count [5] was 0 of 3.
O=Cc1[nH]c(=O)[nH]c(=O)c1Cc1ccc(Cl)cc1 was tested, and the survivor count [3] was 2 of 6.
For CN(C)c1ccc2nc3ccc(=[N+](C)C)cc-3sc2c1, the survivor count (dose: 40.0 mg/kg/injection, schedule: Q01DX Z (ip), vehicle: carboxymethylcellulose (CMC)) was 10 of 10 and the survivor count [10] was 1 of 6.
With Cc1ncc(C(O)c2ccc(N(C)C)cc2)n1Cc1ccccc1 (configuration not stated) the survivor count [7] was 3 of 3.
For CN(N)C(=O)Nc1ccc(Cl)c(Cl)c1, the survivor count [8] was 2 of 6.
With C[N+](C)(CCC#N)Cc1ccc(C[N+](C)(C)CCC#N)cc1 the survivor count (dose: 40.0 mg/kg/injection, schedule: Q01DX001 (ip), vehicle: saline) was 1 of 6, the survivor count (dose: 75.0 mg/kg/injection, schedule: Q01DX001 (ip), vehicle: saline) was 0 of 6 and the survivor count (dose: 80.0 mg/kg/injection, schedule: Q01DX001 (ip), vehicle: saline) was 0 of 6. The survivor count (dose: 150.0 mg/kg/injection, schedule: Q01DX001 (ip), vehicle: saline) was 0 of 6 and the survivor count (dose: 300.0 mg/kg/injection, schedule: Q01DX001 (ip), vehicle: saline) was 0 of 6.
